For one substance, binding results are on record in PMC12680731.

Chains of the proteins cited; added tags and fusions are not shown.
UniProt O89090: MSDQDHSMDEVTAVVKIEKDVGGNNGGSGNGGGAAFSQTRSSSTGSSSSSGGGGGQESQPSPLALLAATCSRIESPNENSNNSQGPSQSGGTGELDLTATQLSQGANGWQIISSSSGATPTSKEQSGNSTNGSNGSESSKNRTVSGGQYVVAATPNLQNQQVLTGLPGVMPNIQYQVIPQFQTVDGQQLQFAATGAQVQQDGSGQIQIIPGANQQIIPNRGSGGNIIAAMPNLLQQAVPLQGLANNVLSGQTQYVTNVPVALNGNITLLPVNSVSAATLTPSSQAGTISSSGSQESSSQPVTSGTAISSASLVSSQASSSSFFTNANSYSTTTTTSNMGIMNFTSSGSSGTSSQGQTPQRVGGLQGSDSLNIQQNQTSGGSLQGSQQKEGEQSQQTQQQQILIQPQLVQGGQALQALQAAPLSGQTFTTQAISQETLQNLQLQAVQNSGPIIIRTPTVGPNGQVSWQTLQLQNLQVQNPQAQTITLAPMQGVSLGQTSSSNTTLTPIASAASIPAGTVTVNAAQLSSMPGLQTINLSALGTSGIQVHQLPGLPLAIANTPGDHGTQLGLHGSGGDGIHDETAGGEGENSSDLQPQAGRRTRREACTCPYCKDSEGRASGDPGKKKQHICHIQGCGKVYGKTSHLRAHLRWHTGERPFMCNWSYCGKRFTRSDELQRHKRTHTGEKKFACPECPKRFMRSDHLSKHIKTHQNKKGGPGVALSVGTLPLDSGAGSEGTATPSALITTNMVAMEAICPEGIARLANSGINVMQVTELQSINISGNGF
UniProt Q63844: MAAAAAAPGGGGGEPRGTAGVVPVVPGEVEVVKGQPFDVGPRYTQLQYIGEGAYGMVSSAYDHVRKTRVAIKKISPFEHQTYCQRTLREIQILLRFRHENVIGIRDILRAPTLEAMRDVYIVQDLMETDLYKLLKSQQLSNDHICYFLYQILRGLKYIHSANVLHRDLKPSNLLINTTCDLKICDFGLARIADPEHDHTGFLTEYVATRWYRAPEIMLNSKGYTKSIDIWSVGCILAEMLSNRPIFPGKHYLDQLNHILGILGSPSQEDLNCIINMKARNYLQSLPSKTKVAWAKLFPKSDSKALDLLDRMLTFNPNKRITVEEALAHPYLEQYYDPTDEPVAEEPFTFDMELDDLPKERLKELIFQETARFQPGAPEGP

Assay [1] has as its target specificity protein 1 (Sp1) (mouse (endogenous in cardiac tissue of wildtype mice)) (UniProt O89090). The assay can be described thus: co-IP; total cardiac protein from wildtype mice; tissue homogenised in lysis buffer (20 mM Tris HCl pH 8, 137 mM NaCl, 1% NP-40, 2 mM EDTA) at 4 °C; immunoprecipitated with anti-Sp1 or anti-SGLT1 primary antibody and protein A agarose beads; immunoprecipitate probed on immunoblots for ERK1. On the technique in general: A western blot detects proteins with antibodies after separation by electrophoresis.

For assay [2], the target named is T1, sodium-glucose co-transporter 1 (SGLT1) (mouse (endogenous in cardiac tissue of wildtype mice)) (UniProt Q8C3K6).
T1 sequence: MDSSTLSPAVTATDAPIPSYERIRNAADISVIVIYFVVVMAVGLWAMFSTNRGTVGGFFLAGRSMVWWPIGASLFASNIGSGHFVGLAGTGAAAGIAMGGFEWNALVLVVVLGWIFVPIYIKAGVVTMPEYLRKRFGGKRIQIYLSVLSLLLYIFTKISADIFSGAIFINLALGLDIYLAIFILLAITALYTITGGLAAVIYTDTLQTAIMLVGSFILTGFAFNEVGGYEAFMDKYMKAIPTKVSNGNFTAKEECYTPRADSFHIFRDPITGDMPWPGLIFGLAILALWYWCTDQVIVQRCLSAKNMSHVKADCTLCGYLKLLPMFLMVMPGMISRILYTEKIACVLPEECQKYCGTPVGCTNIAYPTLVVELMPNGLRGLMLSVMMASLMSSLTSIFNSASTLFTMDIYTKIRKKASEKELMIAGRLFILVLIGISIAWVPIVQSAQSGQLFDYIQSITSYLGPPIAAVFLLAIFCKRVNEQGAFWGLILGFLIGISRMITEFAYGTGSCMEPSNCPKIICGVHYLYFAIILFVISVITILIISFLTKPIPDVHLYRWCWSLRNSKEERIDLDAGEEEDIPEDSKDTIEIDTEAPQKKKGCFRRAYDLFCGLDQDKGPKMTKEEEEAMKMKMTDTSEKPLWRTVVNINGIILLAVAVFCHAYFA
The assay is described as above.

Results are given in words; binding and its absence hold for the method and conditions named. Binding seen in cells or lysates may run through a third protein. Some results given as binding are weak or reduced against the parent protein; the word gives no strength. For some assays here: Where a sequence is shown, tags or fusion partners need not be part of it.

Consider “ERK1 (from UniProt Q63844 1-380) (enzyme)”, for which the binding result in assay [1] and in assay [2] was “binds” each time.
